In the assay the target is human cluster designation 34 (CD34) antigen on the surface of TF-1 cells (human) (UniProt P28906). Briefly: dose response and competition cell capture assays, TF-1 cells.

The chains behind the UniProt entries cited, without tags or fusion partners. Residues count along the entry.
UniProt P28906, residues 32-385: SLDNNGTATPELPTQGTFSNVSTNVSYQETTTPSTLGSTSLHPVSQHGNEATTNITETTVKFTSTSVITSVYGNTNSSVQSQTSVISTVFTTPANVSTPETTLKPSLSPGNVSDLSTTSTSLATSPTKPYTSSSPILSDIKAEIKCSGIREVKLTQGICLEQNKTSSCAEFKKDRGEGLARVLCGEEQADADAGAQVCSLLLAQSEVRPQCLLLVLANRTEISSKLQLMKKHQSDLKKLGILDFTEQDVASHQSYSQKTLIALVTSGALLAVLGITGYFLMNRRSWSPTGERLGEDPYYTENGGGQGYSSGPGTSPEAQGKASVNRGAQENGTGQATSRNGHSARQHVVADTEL

No constants are given. Whether binding was seen depends on the method and setting. Some results given as binding are weak or reduced against the parent protein; the word gives no strength.

B1: recombinant anti-CD34 antibody produced by stable CHO-DXB11 cell lines (evaluation cell banks ECB1 to ECB9) (antibody, mouse IgG1, V domains shown)
VH: EVQLQQSGPELVKPGASVKISCKASGYSFIGYFMNWVMQSHGRSLEWIGRINPYNGYTFYNQKFKGKATLTVDKSSSTAHMELRSLASEDSAVYYCARHFRYDGVFYYAMDYWGQGTSVTVSS
VL: QLVLTQSSSASFSLGASAKLTCTLSSQHSTFTIEWYQQQPLKPPKYVMDLKKDGSHSTGDGVPDRFSGSSSGADRYLSISNIQPEDEATYICGVGDTIKEQFVYVFGGGTKVTVLG
In the case of B1, the binding result is reported as “binds”.

For the origin of these results see patent US20130143238A1 (BAXTER HEALTHCARE S A, published 2013).
